Literature values, collected in US7705017B2, “Compounds for treatment of neurodegenerative diseases” (En Vivo Pharmaceuticals, Inc., priority 2004, dated 2010).

Test system: Histone Deacetylase-Like Protein (HDLP)
Settings: HDLP deacetylates histones in vitro

O=C(CCCCCCC(=O)Nc1ccccc1)NO [SAHA, suberoylanilide hydroxamic acid]
inhibition of HDAC-like protein (HDLP): inhibited
